The record followed here is patent EP4610271B1 (Success Bio-Tech Co., Ltd., priority 2023, dated 2026).

The series in a line: general procedure: Fmoc solid-phase peptide synthesis; Rink Amide-AM resin; DIC/HOBT. Particulars: whole synthesis, scale of the general procedure 2.10 g resin, optionally acetate or hydrochloride salt.

Some peptides are written in HELM: one residue between dots, names in brackets for other building blocks, links after the first $.

With “PEPTIDE1{[ac].P.R.V.D.V.R.V.R.V.R.V.D.P.[am]}$$$$V2.0”, the “final purity (method not given)” value is given as “up to 97%”.
